Data reported in patent US20240041593A1, “CARDIAC VALVE PROSTHESIS” (GROWNVALVE GMBH, priority 2020, published 2024).

Test: tensile test of shaped, cross-linked body tissue
Design: species or system human and animal
Conditions: for stress resistance: FIG. 1, compound X 0.05% 24 hours, GA 0.2 to 0.625% 20 minutes
Experimental: To identify whether different cross-linking agents might have a different effect on the cross-linking of body tissue, in vitro tests were performed. For this purpose, human and animal body tissue was used and shaped in a deep-drawing process to give the body tissue the shape and size of a cardiac valve, namely of a pulmonary artery valve.
Afterwards, the shaped body tissue was fixated and stabilized by the addition of two different cross-linking agents. On the one hand, glutaraldehyde (GA) was used, on the other hand a compound having the structure of formula (X) was used. The latter compound will be referred to as compound X in the following. The final concentration of GA was chosen to be in a range of 0.2 to 0.625% in the treatment solution. The final concentration of compound X was chosen to be 0.05% in the treatment solution. The incubation was carried out over time period of 20 minutes (GA) or 24 hours (compound X) at a temperature lying in a range of 20° C. to 40° C. The treatment solution containing the cross-linking agent was buffered by a citrate buffer in a pH range of pH 4.8 to pH 5.0. Within the first 30 minutes of the cross-linking process, the shaped body tissue and the treatment solution were agitated by a rocking shaker at 100 rpm.
Afterwards, a tensile test was carried out.
At the same time, the maximum achieved strain was 10% higher in case of the cross-linking with GA than in case of compound X (57% vs. 51%). For the functioning of a cardiac valve, however, a higher stress resistance and a sufficiently high strain resistance is believed to be more important than a high strain resistance alone. Therefore, it was decided to carry out subsequent characterization tests only with respect to the shaped body tissue cross-linked with compound X.

## O=CCCCC=O [GA, glutaraldehyde]
FIG. 1
  maximum achieved strain: 57%
  maximum achieved strain, higher than in case of compound X: 10%
  stress resistance: 6.7 MPa

## C/C=C1\C(O)OC=C(C(=O)OC)C1CC(=O)OCCc1ccc(O)c(O)c1 (stereo not drawn) [compound X]
FIG. 1
  maximum achieved strain: 51%
  stress resistance relative to body tissue cross-linked with GA: 1.5 fold
  stress resistance: 9.5 MPa
